Experimental data taken from US8383887B2, “Methods of using plants containing the gdhA gene” (Southern Illinois University Carbondale, priority 2009, dated 2013).
Several values for one entry are separate records, joined by “and”; a condition that tells them apart may be missing. Equal entries are not always repeated.

system: gdhA+ Nicotiana tabacum plants; experiment: Metabolites with altered abundance in leaf and root extracts of gdhA+ vs gdhA− Nicotiana tabacum; settings: fatty acids (Table 6Ii); tissue not given

Going from CCCCCCCCCCCCCCCCCCCCCCCC(=O)O [Lignoceric acid] to CCCCCCCCCCCCCCCCCCC(=O)O [n-Nonadecanoic Acid], the “Percent Change” value rises from 5% to 10%.

Going from CCCCCCCCCCCCCCCCC(=O)O [n-Heptadecanoic Acid] to CCCCCCCCCCCCCCCCCC(=O)O [Stearic acid], the “Percent Change” value falls from 19% to 11%.

First: CCCCCCCCCCC(=O)O [Undecanoic acid]
Second: CCCCCCCCCCCCC(=O)O [Tridecanoic acid]
The “Percent Change” value of the first is lower: 21% for the first, 22% for the second.

same assay, conditions: leaf extracts, Nicotiana tabacum; % changes are ±2%

First: Cc1ccc2[nH]cc(CC(N)C(=O)O)c2c1 (racemic) [5-Methyl-DL-tryptophan]
Second: CCCCCCCCCCCCCCCCCCCCCCCC(=O)O [Lignoceric acid]
The “Percent Change in abundance in gdhA+ plants compared to gdhA− plants” value (shortened to “Percent Change in abundance”) of the first is higher: 40% for the first, 15% for the second.

First: CCCCC/C=C\C/C=C\CCCCCCCC(=O)O [Linoleic acid]
Second: Bis-D-fructose 2′,1:2,1′-dianhydride
The “Percent Change in abundance” value of the first is lower: 36% for the first, 208% for the second.

Compared with CON(C)C(=O)Nc1cccc(OC(=O)c2ccccc2)c1 [1-(3-benzoyloxyphenyl)-3-methyl-3-methoxyurea], CC(C)(CO)[C@@H](O)C(=O)NCCCC(=O)O [Hopantenic acid] is lower in “Percent Change in abundance” value: 192% for the first, 34% for the second.

First: O=C(O)[C@H](O)[C@@H](O)CO [L-threonate]
Second: COc1cc2ccc(=O)oc2cc1O [Scopoletin]
The “Percent Change in abundance” value of the first is higher: 370% for the first, 244% for the second.

With c1cnc2c(c1)CCC2 [2,3-cyclopentenopyridine] the “Percent Change in abundance” value was 176% and 278%.

same assay, conditions: leaf extracts; gdhA+ plants compared to gdhA− plants; % changes are ±2%

Going from CON(C)C(=O)Nc1cccc(OC(=O)c2ccccc2)c1 [1-(3-benzoyloxyphenyl)-3-methyl-3-methoxyurea] to CC(C)(CO)[C@@H](O)C(=O)NCCCC(=O)O [Hopantenic acid], the “Percent Change” value falls from 192% to 34%.

In the case of O=C(O)[C@H](O)[C@@H](O)CO [L-threonate], the “Percent Change” value is reported as 370%.

same assay, conditions: leaf extracts; metabolite abundance, gdhA+ vs gdhA− Nicotiana tabacum

First: NC(=O)CC[C@H](N)C(=O)O [Glutamine]
Second: Cc1ccc2[nH]cc(CC(N)C(=O)O)c2c1 (racemic) [5-Methyl-DL-tryptophan]
The “Percent Change” value of the first is higher: 357% for the first, 40% for the second.

Going from N[C@@H](Cc1c[nH]c2ccccc12)C(=O)O [Tryptophan] to c1cnc2c(c1)CCC2 [2,3-cyclopentenopyridine], the “Percent Change” value rises from 217% to 278%.

same assay, conditions: root extracts, Nicotiana tabacum; % changes are ±2%

Compared with CCCCCCCC(=O)CCCCCC(=O)OC [Tetradecanoic acid, 7-oxo-, methyl ester], CCCCCCCCCCCCCCC1(C(=O)O)CO1 (centres unmarked) [Palmoxiric acid] is lower in “Percent Change in abundance” value: 43% for the first, 35% for the second.

Compared with CCCCC[C@@H](/C=C/C=C\CCCCCCCC(=O)O)OO [(9Z,11E)-(13S)-13-Hydroperoxyoctadeca-9,11-dienoate], O=c1ccc2ccccc2o1 [Coumarin] is lower in “Percent Change in abundance” value: 194% for the first, 10% for the second.

Going from O=C(CO)c1ccccc1 [alpha-Hydroxyacetophenone] to O=[N+]([O-])c1ccc(C=Cc2cccc(CO)n2)o1 [6-[2-(5-nitrofuranyl)ethenyl]-2-pyridinemethanol], the “Percent Change in abundance” value rises from 49% to 213%.

First: COc1cc(NS(=O)(=O)c2ccc(N)cc2)ncn1 [4-amino-N-(6-methoxy-4-pyrimidyl)-benzenesulfonamide]
Second: CCCCCCCCCCCCCCCCC(=O)O [n-Heptadecanoic Acid]
The “Percent Change in abundance” value of the first is higher: 20% for the first, 19% for the second.

Going from CCCCCCCCCCCCC(C(=O)O)C(=O)O [Dodecylmalonic acid] to CC(C)c1cccc(C(C)C)c1N=C1NCCN1 [N-[2,6-bis(isopropyl)phenyl]-2-imidazolidineimine], the “Percent Change in abundance” value rises from 46% to 345%.

Compared with Bis-D-fructose 2′,1:2,1′-dianhydride, C=C(CC(=O)OCC(CC)CCCC)C(=O)OCC(CC)CCCC (centres unmarked) [Di(2-ethylhexyl) itaconate] is lower in “Percent Change in abundance” value: 1250% for the first, 40% for the second.

First: O=C1C[C@@H](O)CN1 [R-4-hydroxy-2-pyrrolidone]
Second: O[C@@H]1[C@@H](O)[C@@H]2OC[C@@H](O2)[C@H]1O [1,6-Anhydro-beta-D-glucopyranose]
The “Percent Change in abundance” value of the first is higher: 435% for the first, 263% for the second.

Compared with CCCCCCC(=O)/C=C/CCCCCCCCC(=O)OC [Methyl 12-oxo-trans-10-octadecenoate], CN1CCCC1c1cccnc1 (centres unmarked) [Nicotine] is higher in “Percent Change in abundance” value: 25% for the first, 270% for the second.

Going from CCCCCCCCCC(N)=O [Decanamide] to CCCCCCCCCCCCOS(=O)(=O)c1ccccc1 [Benzenesulfonic acid dodecylester], the “Percent Change in abundance” value falls from 435% to 63%.

Compared with CCOC(=O)CCC1CCC(=O)CC1 [Cyclohexanepropionic acid, 4-oxo-, ethyl ester], O=C(O)C1CC(O)C=N1 (centres unmarked) [3-hydroxy-1-pyrroline-gamma-carboxylate] is higher in “Percent Change in abundance” value: 25% for the first, 244% for the second.

Compared with CCCCC1=C2NC(N)=N[C@H]3CC[C@@H](C[C@@H]1C)[C@@H]23 [(−)-Ptilocaulin], CN(C)C(=O)NC1CCCCCCC1 [Cyclooctyl-1,1-dimethylurea] is lower in “Percent Change in abundance” value: 294% for the first, 24% for the second.

First: O=c1ccn([C@@H]2O[C@H](CO)[C@@H](O)[C@H]2O)c(=O)[nH]1 [Uridine]
Second: C=CCOC(=O)CCCCCCCC1OC1CCCCCCCC (centres unmarked) [Octadecanoic acid, 9,10-epoxy-, allyl ester]
The “Percent Change in abundance” value of the first is higher: 400% for the first, 10% for the second.

With O=C1C2CCCN2C(=S)N1c1ccccc1 (centres unmarked) [PTH-proline] the “Percent Change in abundance” value was 43%.

For CCCCCCCCCCCCCCCCCCCCCCCC(=O)O [Lignoceric acid], the “Percent Change in abundance” value was 13% and 5%.
In the case of NCCCC[C@H](NC(CCc1ccccc1)C(=O)O)C(=O)N1CCC[C@H]1C(=O)O (stereo partly drawn) [1-[N-(1-carboxy-3-phenylpropyl)-L-lysyl]-L-proline], the “Percent Change in abundance” value is reported as 278% and 244% and 400%.
In the case of CCCCCCCCCCC(=O)O [Undecanoic acid], the “Percent Change in abundance” value is reported as 13% and 21%.

same assay, conditions: root extracts; gdhA+ plants compared to gdhA− plants; % changes are ±2%

Going from CCCCCCCCCCCCCCC1(C(=O)O)CO1 (centres unmarked) [Palmoxiric acid] to CCCCCCCCCCCCC(C(=O)O)C(=O)O [Dodecylmalonic acid], the “Percent Change” value rises from 35% to 46%.

Going from CC(C)c1cccc(C(C)C)c1N=C1NCCN1 to O=[N+]([O-])c1ccc(C=Cc2cccc(CO)n2)o1 [6-[2-(5-nitrofuranyl)ethenyl]-2-pyridinemethanol], the “Percent Change” value falls from 345% to 213%.

Compared with COc1cc(NS(=O)(=O)c2ccc(N)cc2)ncn1 [4-amino-N-(6-methoxy-4-pyrimidyl)-benzenesulfonamide], CCCCCCCCCCCCOS(=O)(=O)c1ccccc1 [Benzenesulfonic acid dodecylester] is higher in “Percent Change” value: 20% for the first, 63% for the second.

Going from C=C(CC(=O)OCC(CC)CCCC)C(=O)OCC(CC)CCCC (centres unmarked) [Di(2-ethylhexyl) itaconate] to CCCCCCCCCC(N)=O [Decanamide], the “Percent Change” value rises from 40% to 435%.

Compared with O=C1C[C@@H](O)CN1 [R-4-hydroxy-2-pyrrolidone], CCOC(=O)CCC1CCC(=O)CC1 [Cyclohexanepropionic acid, 4-oxo-, ethyl ester] is lower in “Percent Change” value: 435% for the first, 25% for the second.

Compared with CCCCC1=C2NC(N)=N[C@H]3CC[C@@H](C[C@@H]1C)[C@@H]23 [(−)-Ptilocaulin], CN(C)C(=O)NC1CCCCCCC1 [Cyclooctyl-1,1-dimethylurea] is lower in “Percent Change” value: 294% for the first, 24% for the second.

same assay, conditions: root extracts; metabolite abundance, gdhA+ vs gdhA− Nicotiana tabacum

Going from NC(=O)CC[C@H](N)C(=O)O [Glutamine] to N[C@@H](Cc1c[nH]c2ccccc12)C(=O)O [Tryptophan], the “Percent Change” value falls from 357% to 222%.

Going from O=C(O)[C@@H]1CCCN1 [Proline] to O=C1C2CCCN2C(=S)N1c1ccccc1 (centres unmarked) [PTH-proline], the “Percent Change” value falls from 256% to 43%.

In the case of O=c1ccn([C@@H]2O[C@H](CO)[C@@H](O)[C@H]2O)c(=O)[nH]1 [Uridine], the “Percent Change” value is reported as 400%.

For NCCCC[C@H](NC(CCc1ccccc1)C(=O)O)C(=O)N1CCC[C@H]1C(=O)O (stereo partly drawn) [1-[N-(1-carboxy-3-phenylpropyl)-L-lysyl]-L-proline], the “Percent Change” value was 278% and 244% and 400%.

system: corn kernels; experiment: Levels of metabolites in gdhA+ vs gdhA− corn kernels; parameters: species or system Zea mays; settings: metabolite level in gdhA+ corn relative to gdhA− corn

Going from CSc1nccc(Cl)n1 [4-Chloro-2-methylthiopyrimidine] to O=C[C@H](O)[C@@H](O)[C@H](O)[C@H](O)CO [D-glucose], the “Factor for relative level in gdhA^+ vs. gdhA corn” value (shortened to “Factor for relative level”) rises from 0.4 to 1.9.

Going from O=C(O)CC(O)C(=O)O.O=C(O)[C@@H](O)[C@H](O)CO (racemic) [DL-malic acid; Threonate] to O=C(/C=C/c1ccc(O)c(O)c1)O[C@@H]1C[C@](O)(C(=O)O)C[C@@H](O)[C@H]1O [Chlorogenic acid], the “Factor for relative level” value falls from 2.4 to 2.

First: CCCCC/C=C\C/C=C\CCCCCCCC(=O)O [Linoleic acid]
Second: 4-hydroxybutyl phosphate
The “Factor for relative level” value of the first is higher: 0.8 for the first, 0.4 for the second.
